The values that follow come from PMC7819943, “Rice protein-binding microarrays: a tool to detect cis-acting elements near promoter regions in rice”.

Protein sequences, listed by entry. Tags and fused reporters are not part of them.
UniProt Q0JBA9, entry or part of it: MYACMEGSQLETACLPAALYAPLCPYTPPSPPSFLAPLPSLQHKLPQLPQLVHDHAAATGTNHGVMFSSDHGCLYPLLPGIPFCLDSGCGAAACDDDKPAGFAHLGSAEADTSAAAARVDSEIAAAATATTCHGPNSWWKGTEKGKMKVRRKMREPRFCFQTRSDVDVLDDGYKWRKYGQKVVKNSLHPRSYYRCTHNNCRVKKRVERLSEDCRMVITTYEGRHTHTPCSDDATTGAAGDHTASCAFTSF

This is one part of the list.

The target in the test is OsWRKY34 (Oryza sativa, UniProt Q0JBA9 1-250). In words: protein-binding microarray (RPBM); PBS, 2% BSA, 51.3 ng/ul salmon testes DNA, 50 uM zinc acetate, 200 nM TF, 25 C, 1 h; high values mean tight binding. The settings on record: protein: recombinant; tags: N-terminal polyhistidine and DsRed monomer fusion (pET32a); label: CyDye5-dUTP incorporated in the synthesized complementary strand; 3' TTTTT single-stranded linker to array surface; dsDNA, one strand shown. An outline of the steps: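 Polyhistidine-tagged DsRed fusions of transcription factors, joined at the N-terminus, were expressed in E. coli BL21-CodonPlus and isolated on Ni–NTA. They were incubated at 200 nM for 1 h at 25 °C on a custom Agilent array, double-stranded and BSA-blocked, in PBS with 2% BSA, salmon testes DNA and 50 µM zinc acetate. The binding signal is per-feature fluorescence intensity (arbitrary units) read on an Axon 4000B scanner after washing.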
Regarding “GTCACCATTCTCCTCTTGCAATTTCACCACCACCGCCACGCGGAGTCACCTAGTGCAG”, the binding signal was 8460 fluorescence intensity (a.u.). Take “AACCCCACTTGTTACTTCTATTGATTCAATCAACATATTTCGGAGTCACCTAGTGCAG”: the binding signal is 9010 fluorescence intensity (a.u.). For the sequence “TTCCATCTTCTTCCTTTCTTCCCAACACCAACCGCATCATCGGAGTCACCTAGTGCAG”, the binding signal is 8560 fluorescence intensity (a.u.). The result for “TTGGGTCATCTCTTCTCTTGTTTGATGTGTTCAACTTGTCCGGAGTCACCTAGTGCAG” reads 8490 fluorescence intensity (a.u.); that for “CTTACTCTCTCCGTCTCTAAATATTTGACGCCGTTGACTTCGGAGTCACCTAGTGCAG”, 12900 fluorescence intensity (a.u.).

Consider “TGGTCCAGTCATTCATCTATGCACGTACATTAACTCCTTCCGGAGTCACCTAGTGCAG”, for which the binding signal is 13200 fluorescence intensity (a.u.). As for “GTATGATTGATCTTCTACGTCCATTATAATTACCACATTGCGGAGTCACCTAGTGCAG”, the binding signal was 8090 fluorescence intensity (a.u.). As for “CCTCGGATCACCACTGTCTTCGCCCGCGGCGGCGCACGCCCGGAGTCACCTAGTGCAG”, the binding signal is 12200 fluorescence intensity (a.u.).

In the case of “TGCACCTATCATTAATTAATTATACATTTTCCTATATATACGGAGTCACCTAGTGCAG”, the binding signal is 9200 fluorescence intensity (a.u.). The result for “GGCGGGGTTAGGATTCCGGCGAGGAGGGGCGGCGGGCTCCCGGAGTCACCTAGTGCAG” reads 12500 fluorescence intensity (a.u.).

On to “ACCACCGAAAACCGTAGTGACTCTCTCTCTCTCTCTCTCTCGGAGTCACCTAGTGCAG”, for which the binding signal was 8590 fluorescence intensity (a.u.).

On to “GACGAACGGTCAAACATTTTTAAAAAAGTCAACGGCGTTACGGAGTCACCTAGTGCAG”, for which the binding signal was 15200 fluorescence intensity (a.u.). As for “ACCAGTGGGCCCCACACACCCTTTCTACTCGCAGCTACTGCGGAGTCACCTAGTGCAG”, the binding signal is 9100 fluorescence intensity (a.u.). Turning to “CTTTTCCATTTCCATGCATTCTTTGATCATCAAGTGATCACGGAGTCACCTAGTGCAG”, the binding signal was 12100 fluorescence intensity (a.u.). The result for “AAAGCCACCGTCCTCTACGATATCGCCCAAAAACCTGCCACGGAGTCACCTAGTGCAG” reads 9000 fluorescence intensity (a.u.); that for “CTGCGGGCCCGTCTGCACGGCCACCACCGAGAGGCGTCCACGGAGTCACCTAGTGCAG”, 8300 fluorescence intensity (a.u.); that for “TGTTGCAATCTGTTAAAACCAACTTGTATGTAATCCTTATCGGAGTCACCTAGTGCAG”, 8670 fluorescence intensity (a.u.).

In the case of “TGGCGGCGAGGAGCGGCGGCGGCGGGGTTAGGATTCCGGCCGGAGTCACCTAGTGCAG”, the binding signal was 8720 fluorescence intensity (a.u.). The value for “AAGTATTAGAGTTATATGAGCTTACCTGTACCCTTTTCTTCGGAGTCACCTAGTGCAG” was 9730 fluorescence intensity (a.u.); that for “GCGTATCTTCCCAATCTTCTCAATCTCCTATTCCTCAAACCGGAGTCACCTAGTGCAG” was 9320 fluorescence intensity (a.u.). “ACCGATCTCGCCCATTTCGGCGACAATCTCACCGGTATCTCGGAGTCACCTAGTGCAG”: the binding signal is 9290 fluorescence intensity (a.u.). The value for “ATCGCCCTCTTTCTGTTTTGATCATATCAAACTTGGTTCTCGGAGTCACCTAGTGCAG” was 10300 fluorescence intensity (a.u.); that for “AGAACCGCACATATATATGAGAAATCTTTTGTTGGTTTTCCGGAGTCACCTAGTGCAG” was 9140 fluorescence intensity (a.u.).
